Substitutions are numbered along the chain they refer to. This is one part of the list. For part of these data: At the low end of the ranking the order means little. For part of these data: The source does not settle which construct or isoform was used. A value given as a limit tells only on which side of the number the result lay.

For 21 sequences, binding signal (log2 enrichment (interaction score)) results are on record in publication PMC8384837.

What all share (details): yeast three-hybrid, YBZ-1, SC-Leu-His + 0.5 mM 3-AT, 4 days
For test [1], the target named is T1, PUM1 PUF domain R1-QFR R2-VFQ R7-NPG S863Q + R864F + Q867R + N899V + Y900F + S1079N + N1080P + E1083G (UniProt Q14671).
T1 sequence: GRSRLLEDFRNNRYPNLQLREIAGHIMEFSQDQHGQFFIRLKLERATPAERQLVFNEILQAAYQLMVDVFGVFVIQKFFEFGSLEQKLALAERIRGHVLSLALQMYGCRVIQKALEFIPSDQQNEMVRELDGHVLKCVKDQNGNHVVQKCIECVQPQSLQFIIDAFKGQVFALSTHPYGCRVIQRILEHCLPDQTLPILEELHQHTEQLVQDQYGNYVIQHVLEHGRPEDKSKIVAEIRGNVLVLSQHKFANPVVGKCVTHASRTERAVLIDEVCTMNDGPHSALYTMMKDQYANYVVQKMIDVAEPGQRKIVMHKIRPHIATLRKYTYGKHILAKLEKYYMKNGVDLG

Test [2] deals with T2, PUM1 PUF domain R2-VFQ R3-THE R4-TFR N899V + Y900F + C935T + R936H + Q939E + N971T + H972F + Q975R (UniProt Q14671).
T2 sequence: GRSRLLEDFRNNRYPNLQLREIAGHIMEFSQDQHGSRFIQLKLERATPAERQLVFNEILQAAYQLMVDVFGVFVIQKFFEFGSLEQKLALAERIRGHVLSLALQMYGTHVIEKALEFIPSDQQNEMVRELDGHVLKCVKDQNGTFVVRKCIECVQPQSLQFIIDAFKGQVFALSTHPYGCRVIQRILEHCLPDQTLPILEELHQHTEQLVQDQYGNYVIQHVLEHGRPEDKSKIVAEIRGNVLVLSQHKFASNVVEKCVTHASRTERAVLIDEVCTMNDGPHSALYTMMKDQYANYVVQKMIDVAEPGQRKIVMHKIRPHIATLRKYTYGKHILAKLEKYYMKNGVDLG

Test [3] addresses T3, PUM1 PUF domain R3-THE R4-TFR C935T + R936H + Q939E + N971T + H972F + Q975R (UniProt Q14671).
T3 sequence: T2 sequence with V72N, F73Y

Test [4] deals with T4, PUM1 PUF domain R5-PHQ R6-SWD C1007P + R1008H + N1043S + Y1044W + Q1047D (UniProt Q14671).
T4 sequence: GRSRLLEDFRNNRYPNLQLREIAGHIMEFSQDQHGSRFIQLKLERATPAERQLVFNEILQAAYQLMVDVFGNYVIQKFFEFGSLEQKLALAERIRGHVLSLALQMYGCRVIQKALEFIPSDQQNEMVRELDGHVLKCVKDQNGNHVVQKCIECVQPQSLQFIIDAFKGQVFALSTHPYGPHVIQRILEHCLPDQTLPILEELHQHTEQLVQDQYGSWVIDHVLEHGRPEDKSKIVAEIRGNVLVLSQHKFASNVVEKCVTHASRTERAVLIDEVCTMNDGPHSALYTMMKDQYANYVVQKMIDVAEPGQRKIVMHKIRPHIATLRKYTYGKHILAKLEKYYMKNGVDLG

In test [5] the target is T5, PUM1 PUF domain R6-SWD R7-NPG N1043S + Y1044W + Q1047D + S1079N + N1080P + E1083G (Homo sapiens) (UniProt Q14671).
T5 sequence: T4 sequence with P180C, H181R, S252N, N253P, E256G

Test [6] concerns the target T6, PUM1 PUF domain R3-THE R4-TFR R7-NPG C935T + R936H + Q939E + N971T + H972F + Q975R + S1079N + N1080P + E1083G (Homo sapiens) (UniProt Q14671).
T6 sequence: T2 sequence with V72N, F73Y, S252N, N253P, E256G

The target of test [7] is T7, PUM1 PUF domain R5-PHQ R6-SWD C1007P + R1008H + N1043S + Y1044W + Q1047D (Homo sapiens) (UniProt Q14671).
T7 sequence: T4 sequence

Test [8] deals with T8, PUM1 PUF domain R3-THE R4-TFR R7-NPG C935T + R936H + Q939E + N971T + H972F + Q975R + S1079N + N1080P + E1083G (UniProt Q14671).
T8 sequence: T2 sequence with V72N, F73Y, S252N, N253P, E256G

Test [9] has as its target T9, PUM1 PUF domain R6-SWD R7-NPG N1043S + Y1044W + Q1047D + S1079N + N1080P + E1083G (UniProt Q14671).
T9 sequence: T4 sequence with P180C, H181R, S252N, N253P, E256G

On to “GGCUAGAACUAGUGGAUCCCCCGGCGCCCGGCGGCUCGAGCCCGGGUAAGUUUAAAUCGUCUGCAUGCCGCCGGGCGCCAUGCCUGCAGGUCGACUCUAGAAAACAUG”, for which the binding signal (log2 enrichment (interaction score)) in [1] was -4.47; in test [2], -5.25; in test [3], -6.96; in test [4] it was -7.32; in [5] it was -0.72.

In the case of “GGCUAGAACUAGUGGAUCCCCCGGCGCCCGGCGGCUCGAGCCCGGGUAAGUGUAGAUUGUCUGCAUGCCGCCGGGCGCCAUGCCUGCAGGUCGACUCUAGAAAACAUG”, the binding signal (log2 enrichment (interaction score)) is -5.14 in [1], -5.47 in [2], -6.93 in test [3] and under -7.14 in [4].

As to “GGCUAGAACUAGUGGAUCCCCCGGCGCCCGGCGGCUCGAGCCCGGGUAAGUGUAAGAUGUCUGCAUGCCGCCGGGCGCCAUGCCUGCAGGUCGACUCUAGAAAACAUG”, the binding signal (log2 enrichment (interaction score)) was -6.23 in [1], -5.18 in test [2], -8.07 in [3] and under -7.12 in test [4].

For the sequence “GGCUAGAACUAGUGGAUCCCCCGGCGCCCGGCGGCUCGAGCCCGGGUAAGUUUAGGAAGUCUGCAUGCCGCCGGGCGCCAUGCCUGCAGGUCGACUCUAGAAAACAUG”, the binding signal (log2 enrichment (interaction score)) in [1] is -5.71; in test [2], -5.97; in [3], -6.43; in [5] it was -1.86.

Consider “GGCUAGAACUAGUGGAUCCCCCGGCGCCCGGCGGCUCGAGCCCGGGUAAGGCUAAGUAGUCUGCAUGCCGCCGGGCGCCAUGCCUGCAGGUCGACUCUAGAAAACAUG”, for which the binding signal (log2 enrichment (interaction score)) in test [1] was -5.38; in [2], -5.28; in test [3], -6.55; in test [4] it was under -6.87.

In the case of “GGCUAGAACUAGUGGAUCCCCCGGCGCCCGGCGGCUCGAGCCCGGGUAAGUCAAAAUCGUCUGCAUGCCGCCGGGCGCCAUGCCUGCAGGUCGACUCUAGAAAACAUG”, the binding signal (log2 enrichment (interaction score)) in [1] was -6.77; in test [2] it was -5.86; in [3] it was under -6.38; in [4] it was -7.15.

Consider “GGCUAGAACUAGUGGAUCCCCCGGCGCCCGGCGGCUCGAGCCCGGGUAAGUCGAAGCGGUCUGCAUGCCGCCGGGCGCCAUGCCUGCAGGUCGACUCUAGAAAACAUG”, for which the binding signal (log2 enrichment (interaction score)) in test [1] was under -6.47; in [2], -5.81; in test [3], -6.56; in test [4], under -6.6.

As for “GGCUAGAACUAGUGGAUCCCCCGGCGCCCGGCGGCUCGAGCCCGGGUAAGCGUAAAUCGUCUGCAUGCCGCCGGGCGCCAUGCCUGCAGGUCGACUCUAGAAAACAUG”, the binding signal (log2 enrichment (interaction score)) in [1] was under -5.55; in [2] it was -5.27; in [3], -6.57; in test [4] it was -7.48.

Regarding “GGCUAGAACUAGUGGAUCCCCCGGCGCCCGGCGGCUCGAGCCCGGGUAAGUGGAUAUAGUCUGCAUGCCGCCGGGCGCCAUGCCUGCAGGUCGACUCUAGAAAACAUG”, the binding signal (log2 enrichment (interaction score)) in test [1] is -5.67; in test [2], -5.49; in test [6] it was -1.69; in test [7], -1.12.

Take “GGCUAGAACUAGUGGAUCCCCCGGCGCCCGGCGGCUCGAGCCCGGGUAAGUGGUAUGCGUCUGCAUGCCGCCGGGCGCCAUGCCUGCAGGUCGACUCUAGAAAACAUG”: the binding signal (log2 enrichment (interaction score)) in [1] was -4.66; in [2], -4.44; in test [4] it was under -7.34.

“GGCUAGAACUAGUGGAUCCCCCGGCGCCCGGCGGCUCGAGCCCGGGUAAGACGAAUAAGUCUGCAUGCCGCCGGGCGCCAUGCCUGCAGGUCGACUCUAGAAAACAUG”: the binding signal (log2 enrichment (interaction score)) in [1] was -4.05; in test [2] it was -4.22; in test [6], under -1.27; in [4], -6.86; in [5] it was -0.37.

Regarding “GGCUAGAACUAGUGGAUCCCCCGGCGCCCGGCGGCUCGAGCCCGGGUAAGUAGGAAAAGUCUGCAUGCCGCCGGGCGCCAUGCCUGCAGGUCGACUCUAGAAAACAUG”, the binding signal (log2 enrichment (interaction score)) is -5.45 in test [1], -5.74 in [2] and under -6.93 in [4].

Regarding “GGCUAGAACUAGUGGAUCCCCCGGCGCCCGGCGGCUCGAGCCCGGGUAAGUUUAAACAGUCUGCAUGCCGCCGGGCGCCAUGCCUGCAGGUCGACUCUAGAAAACAUG”, the binding signal (log2 enrichment (interaction score)) in test [1] was -5.64; in test [2] it was -5.56; in test [4] it was -7.99.

Consider “GGCUAGAACUAGUGGAUCCCCCGGCGCCCGGCGGCUCGAGCCCGGGUAAGUGUAACUGGUCUGCAUGCCGCCGGGCGCCAUGCCUGCAGGUCGACUCUAGAAAACAUG”, for which the binding signal (log2 enrichment (interaction score)) was -3.41 in test [1], -5.53 in test [2], -2.92 in [8] and -7.16 in [4].

On to “GGCUAGAACUAGUGGAUCCCCCGGCGCCCGGCGGCUCGAGCCCGGGUAAGGUGUACAAGUCUGCAUGCCGCCGGGCGCCAUGCCUGCAGGUCGACUCUAGAAAACAUG”, for which the binding signal (log2 enrichment (interaction score)) in test [1] was -6.13; in [2] it was -5.46; in test [8], -2.88.

Turning to “GGCUAGAACUAGUGGAUCCCCCGGCGCCCGGCGGCUCGAGCCCGGGUAAGUCGGAGUCGUCUGCAUGCCGCCGGGCGCCAUGCCUGCAGGUCGACUCUAGAAAACAUG”, the binding signal (log2 enrichment (interaction score)) was -5.93 in test [1], -5.86 in test [2] and under -7.04 in test [4].

For “GGCUAGAACUAGUGGAUCCCCCGGCGCCCGGCGGCUCGAGCCCGGGUAAGUUGAAACAGUCUGCAUGCCGCCGGGCGCCAUGCCUGCAGGUCGACUCUAGAAAACAUG”, the binding signal (log2 enrichment (interaction score)) in test [1] was -6.02; in [2], -6.07; in test [8] it was under -2.76; in [4] it was -7.37.

As for “GGCUAGAACUAGUGGAUCCCCCGGCGCCCGGCGGCUCGAGCCCGGGUAAGUGUAUGUAGUCUGCAUGCCGCCGGGCGCCAUGCCUGCAGGUCGACUCUAGAAAACAUG”, the binding signal (log2 enrichment (interaction score)) is -6.67 in test [1], -5.42 in test [2], under -1.89 in test [6] and under -8.43 in [4].

As to “GGCUAGAACUAGUGGAUCCCCCGGCGCCCGGCGGCUCGAGCCCGGGUAAGUUGAAGUCGUCUGCAUGCCGCCGGGCGCCAUGCCUGCAGGUCGACUCUAGAAAACAUG”, the binding signal (log2 enrichment (interaction score)) was -6.06 in test [1], -6.57 in test [2], under -1.9 in [6] and -8.4 in [4].

For the sequence “GGCUAGAACUAGUGGAUCCCCCGGCGCCCGGCGGCUCGAGCCCGGGUAAGAGGUCAGCGUCUGCAUGCCGCCGGGCGCCAUGCCUGCAGGUCGACUCUAGAAAACAUG”, the binding signal (log2 enrichment (interaction score)) in test [1] was -4.26; in [2], -5.68; in [6], -1.15; in [4], -8.51; in test [9], -2.19.

In the case of “GGCUAGAACUAGUGGAUCCCCCGGCGCCCGGCGGCUCGAGCCCGGGUAAGUUAAAGCAGUCUGCAUGCCGCCGGGCGCCAUGCCUGCAGGUCGACUCUAGAAAACAUG”, the binding signal (log2 enrichment (interaction score)) in [1] is -4.53; in test [2] it was -5.54; in test [4], under -7.81.
